# The other results are listed elsewhere or left out. Shown are side measurements of this screen, not its main read-out; they come without a call. Compounds called inactive in the main read-out are mostly missing here. Potencies come from curve fits of mixed quality, noted in brackets.
# Assay: qHTS Assay for Modulators of Lamin A Splicing
# Conditions: HeLa LMNA splicing GFP/RFP minigene ratio, 48 h
# In short: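 S3 HeLa stable clones carrying a lamin A-EGFP splicing minigene plus DsRed2 were seeded at 600 cells/well in Opti-MEM with 2% FBS, pin-dosed and incubated 48 h at 37°C. Acumen cytometry (488 nm) gave the GFP/RFP total-intensity ratio.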
# [1] = measured here: GFP splicing reporter channel
# [2] = measured here: RFP viability control channel
SMILES,AC50 [1],AC50 [2]
Cc1nc([N+](=O)[O-])c(Br)n1CC(=O)c1ccc(Br)cc1,"35.5 µM [falling, single point]",
CCCCCCn1c(COc2ccccc2F)nnc1SCC(=O)c1c(N)n(C)c(=O)n(C)c1=O,,"6.31 µM [falling, partial curve, poor fit]"
Nc1nc2c(F)c(F)c(F)cc2s1,,"0.562 µM [falling, partial curve, poor fit]"
CC12CC(NC(=O)N1Cc1ccccc1)c1ccccc1O2 (stereo not given),"12.6 µM [rising, single point]","15.8 µM [rising, single point]"
C/C(=N\NC(=O)c1cc(-c2cccnc2)nc2ccccc12)c1ccc(O)cc1O,"4.47 µM [rising, full curve, poor fit]","7.08 µM [rising, partial curve]"
COC(=O)Oc1ccc(/C=N/NC(=O)CSCc2ccc(Cl)cc2)cc1OC,,"35.5 µM [rising, single point]"
CCOC(=O)c1c(-c2ccccc2)csc1NC(=O)CSc1nnnn1C,"35.5 µM [rising, single point]","35.5 µM [rising, single point]"
COc1cc(/C=N\Nc2nc3ccccc3o2)cc(OC)c1OC,,"11.2 µM [rising, partial curve]"
COCCCn1cnc2c(c1=O)c1nc3ccccc3nc1n2CCc1ccccc1,,"2.82 µM [rising, partial curve]"
C[C@H]1c2cccc(O)c2C(O)=C2C(=O)[C@]3(O)C(O)=C(C(N)=O)C(=O)C(N(C)C)[C@@H]3[C@@H](O)C21 (stereo not given in full),"5.62 µM [falling, partial curve, poor fit]","0.631 µM [falling, partial curve, poor fit]"
COc1ccccc1N(C)S(=O)(=O)c1ccc(C(=O)OCC(=O)N2CCCCCC2)cc1,,"0.00447 µM [falling, full curve, poor fit]"
Cc1ccccc1OCC(=O)Nc1ccc2c(c1)n(C)c(=O)n2C,,"10 µM [rising, partial curve]"
COc1cc(Cl)c(NS(=O)(=O)c2cc3[nH]c(=O)c(=O)[nH]c3cc2C)c(OC)c1,,"0.02 µM [rising, full curve, poor fit]"
CC(C)NCC(O)COc1ccc(CC(N)=O)cc1 (stereo not given),,"0.00501 µM [falling, full curve, poor fit]"
CCn1ncc(C2=NOC(C(=O)NCc3ccc(Cl)cc3)C2)c1C (stereo not given),"3.98 µM [rising, full curve, poor fit]","14.1 µM [rising, single point]"
CO/N=C/c1ccc(N2CCN(C(=O)c3cccc(C(F)(F)F)c3)CC2)c([N+](=O)[O-])c1,,"8.91 µM [rising, partial curve]"
N#CC1=C(N)Oc2[nH]c(=S)[nH]c(=O)c2C12C(=O)Nc1ccccc12 (stereo not given),"1 µM [falling, partial curve]",
O=C(COC(=O)c1ccccc1C(=O)c1ccc(Cl)cc1)NCc1ccccc1,,"22.4 µM [rising, single point]"
CN(C(=O)COc1ccccc1C(=O)NCCOc1ccccc1)c1ccccc1,"3.55 µM [falling, partial curve]",

SMILES,AC50 [1],AC50 [2]
O=c1c(Cl)c(N/N=C/c2ccc(Cl)cc2)cnn1-c1ccccc1,,"12.6 µM [rising, partial curve]"
CCOc1ccc(S(=O)(=O)Nc2cccc(N(C)S(C)(=O)=O)c2)cc1,,"10 µM [rising, partial curve]"
CCCCCCSC1=C(C#N)C(c2ccc(O)cc2)CC(=O)N1 (stereo not given),,"35.5 µM [rising, single point]"
OCCCCNCc1ccc(OCc2ccc(Cl)cc2)cc1,,"35.5 µM [rising, single point]"
Cc1ccc2sc(N3CCN(C(=O)C4COc5ccccc5O4)CC3)nc2c1C (stereo not given),"0.794 µM [rising, full curve, poor fit]",
Cc1c(C(=O)N(C)C)sc(NC(=O)c2cccc([N+](=O)[O-])c2)c1C#N,"12.6 µM [rising, single point]","12.6 µM [rising, single point]"
Cn1c(=O)n(CCN2CCOCC2)c(=O)c2c1nc1n2CCN1c1ccc(Oc2ccccc2)cc1,"10 µM [rising, single point]",
Cc1cc(C)c(NS(=O)(=O)c2ccc(NC(=O)c3cccs3)cc2)c(C)c1,,"15.8 µM [rising, partial curve, poor fit]"
COc1ccc(CCNC(=O)c2ccc(CS(=O)(=O)c3ccc(C)cc3)o2)cc1OC,,"17.8 µM [rising, single point]"
COC(=O)c1ccc(C(=O)OC)c(NC(=O)CSCc2ccc(Cl)cc2)c1,,"12.6 µM [rising, single point]"
Cc1ccc(S(=O)(=O)N2CCCSCC2)cc1,"0.0141 µM [rising, full curve, poor fit]","11.2 µM [rising, partial curve, poor fit]"
O=C(/C=C\c1ccco1)Oc1cccc2cccnc12,"25.1 µM [falling, single point]","3.98 µM [rising, single point]"
COc1ccccc1C1C=C(c2ccc(C)cc2)Nc2nnnn21 (stereo not given),,"35.5 µM [rising, single point]"
CCCCN(C)C(=O)Cc1c(OC)ccc2cc(Br)ccc12,"17.8 µM [rising, single point]","15.8 µM [rising, single point]"
COc1ccc(-n2c(C)c([N+](=O)[O-])c3ccc(O)c(CN(C)C)c32)cc1,"7.08 µM [falling, partial curve]","2 µM [falling, partial curve]"
CCOC(=O)[C@H]1O[C@@H]1C(=O)N[C@@H](CC(C)C)C(=O)NCCC(C)C,,"0.447 µM [rising, partial curve]"
N#Cc1c(Nc2ccccc2)sc(C(=O)c2ccc(F)cc2)c1N,"14.1 µM [rising, single point]","11.2 µM [rising, partial curve]"
COc1ccc(-c2csc(N(CCCN3CCOCC3)C(=O)c3ccco3)n2)cc1,"31.6 µM [rising, single point]","35.5 µM [rising, single point]"
COc1ccc(C(=O)C(CN2CCCC2)c2ccccc2)cc1 (stereo not given),,"5.62 µM [rising, single point]"

SMILES,AC50 [1],AC50 [2]
CCc1cc(-c2n[nH]c(=S)n2C(C)c2ccccc2)cs1 (stereo not given),,"11.2 µM [rising, single point]"
Cc1ccc2cc(CN(CC3CCCO3)C(=S)NCc3ccco3)c(=O)[nH]c2c1 (stereo not given),"0.794 µM [falling, full curve, poor fit]","1 µM [falling, full curve, poor fit]"
Cc1cccc(-n2ncc3c(N(CCO)CCO)ncnc32)c1,,"35.5 µM [rising, single point]"
COc1ccccc1CNC(=O)c1c2c(nc3ccccc13)C(=O)N(C1CCCCC1)C2,"0.01 µM [rising, full curve, poor fit]",
C=CCn1c(=O)[nH]c2cc(C(=O)N3CCN(c4cccc(Cl)c4)CC3)ccc2c1=O,"14.1 µM [rising, partial curve]","20 µM [rising, partial curve]"
O=C(Nc1nnc(SCc2cccc3ccccc23)s1)C1COc2ccccc2O1 (stereo not given),"11.2 µM [rising, single point]","12.6 µM [rising, partial curve]"
O=C(COc1ccc([N+](=O)[O-])cc1)N(Cc1ccccc1)Cc1ccccc1,,"25.1 µM [rising, single point]"
Cn1c(CNc2ccccc2O)nc2ccccc21,,"12.6 µM [rising, single point]"
CN(c1ccccc1)S(=O)(=O)c1cccc(NC(=O)CSc2nncs2)c1,,"15.8 µM [rising, partial curve]"
COc1cc(OC)cc(C(=O)N[C@H](C(=O)N2CCc3ccccc32)C(C)C)c1,,"28.2 µM [rising, partial curve]"
CC1=C(C)/C(=N\OS(=O)(=O)c2ccccc2)C=CC1=O,"22.4 µM [falling, single point]","14.1 µM [falling, partial curve]"
COc1cc(C(=O)NCc2ccc3c(c2)CCN3C(=O)c2ccncc2)cc(OC)c1OC,,"0.0891 µM [rising, full curve, poor fit]"
COc1ccc(C(=O)/C=C/c2ccc(O)cc2)c(O)c1CC=C(C)C,"10 µM [rising, partial curve]","14.1 µM [rising, single point]"
Cc1cc(Cl)ccc1OCCCC(=O)N1CCCc2ccccc21,"35.5 µM [rising, single point]","31.6 µM [rising, single point]"
O=C(Cc1ccc(Cl)c(Cl)c1)Nc1cccc2ncccc12,"4.47 µM [falling, partial curve, poor fit]",
CCOC(=O)c1ccc(NC(=S)N(Cc2cccnc2)Cc2ccco2)cc1,"10 µM [falling, partial curve, poor fit]",
CCOc1ccccc1NC(=O)NC(=O)N(C)S(C)(=O)=O,,"39.8 µM [falling, partial curve, poor fit]"
O=C(Nc1cccc(S(=O)(=O)N2CCCCC2)c1)c1ccc([N+](=O)[O-])o1,"0.501 µM [falling, full curve, poor fit]","2.24 µM [falling, partial curve]"

# Of the compounds above, 4 have a cyano group.
SMILES,AC50 [1],AC50 [2]
N#CC1=C(N)Oc2[nH]c(=S)[nH]c(=O)c2C12C(=O)Nc1ccccc12 (stereo not given),"1 µM [falling, partial curve]",
CCCCCCSC1=C(C#N)C(c2ccc(O)cc2)CC(=O)N1 (stereo not given),,"35.5 µM [rising, single point]"
Cc1c(C(=O)N(C)C)sc(NC(=O)c2cccc([N+](=O)[O-])c2)c1C#N,"12.6 µM [rising, single point]","12.6 µM [rising, single point]"
N#Cc1c(Nc2ccccc2)sc(C(=O)c2ccc(F)cc2)c1N,"14.1 µM [rising, single point]","11.2 µM [rising, partial curve]"
